Test results reported in PMC13577022.
Results are given in words; binding and its absence hold for the method and conditions named. Some binding calls cover weakened binding; strength is not graded here.

Molecular target: PhoR-T25 (Salmonella enterica serovar Typhimurium)
Assay: two-hybrid

With “T18C-fused wild-type PhoU (from UniProt A0A0F6B922 1-241)” the binding was “binds”.
